The list is a part of this screen's results and no random one: it is rich in T/C values a quarter to a half above the control, in often repeated tests (any T/C) and in doses without a T/C. Further doses and runs are listed elsewhere. T/C: endpoint of the treated group in % of that of the vehicle group. For survival time, this PubChem deposit counts one and a half times the control or more as active, and values a quarter to a half above the control carry no call in these data; other NCI protocols may use other cut-offs. Schedules are NCI's codes, read here as Q, the interval in days (D) or hours (H), X, the number of doses. Signs of the kind (2×) count equal records among those shown. Some doses were run more than once; their values stand side by side, smallest first.
Tested on: L1210 leukemia ip in BDF1 mice, survival T/C
Assay: NCI In Vivo Anticancer Drug Screen. Data for tumor model L1210 Leukemia (intraperitoneal) in B6D2F1 (BDF1) mice
Conditions: T/C endpoint: mean survival time, higher T/C = longer survival

O=C1C=CN(C2OC(CO)C(O)C2O)C(=O)C1 (configuration not stated)
T/C (dose: 3.0 mg/kg/injection, schedule: Q01DX009 (ip), vehicle: saline): 135 % of control
T/C (dose: 6.25 mg/kg/injection, schedule: Q01DX009 (ip), vehicle: saline): 127 % of control
T/C (dose: 7.2 mg/kg/injection, schedule: Q01DX009 (ip), vehicle: saline): 129 % of control
T/C (dose: 11.0 mg/kg/injection, schedule: Q01DX009 (ip), vehicle: saline): 125 % of control
T/C (dose: 12.5 mg/kg/injection, schedule: Q01DX009 (ip), vehicle: saline): 127 % of control
T/C (dose: 17.0 mg/kg/injection, schedule: Q01DX009 (ip), vehicle: saline): 128 % of control
T/C (dose: 17.0 mg/kg/injection, schedule: Q03HX024 (ip), vehicle: saline): 137 % of control
T/C (dose: 20.0 mg/kg/injection, schedule: Q01DX009 (ip), vehicle: saline, evaluated on day 5): 106 and 118 % of control
T/C (dose: 20.0 mg/kg/injection, schedule: Q01DX009 (ip), vehicle: saline, evaluated on day 45): 106, 118, 119, 123, 133 % of control
T/C (dose: 20.0 mg/kg/injection, schedule: Q01DX009 (ip), vehicle: saline, evaluated on day 60): 118 % of control
T/C (dose: 22.0 mg/kg/injection, schedule: Q01DX009 (ip), vehicle: saline, evaluated on day 5): 126 % of control
T/C (dose: 22.0 mg/kg/injection, schedule: Q01DX009 (ip), vehicle: saline, evaluated on day 60): 127 % of control
T/C (dose: 22.0 mg/kg/injection, schedule: Q03HX024 (ip), vehicle: saline): 126 % of control
T/C (dose: 25.0 mg/kg/injection, schedule: Q01DX009 (ip), vehicle: saline, evaluated on day 30): 136 % of control
T/C (dose: 25.0 mg/kg/injection, schedule: Q01DX009 (ip), vehicle: saline, evaluated on day 45): 125 and 130 % of control
T/C (dose: 26.0 mg/kg/injection, schedule: Q03HX024 (ip), vehicle: saline): 136 % of control
T/C (dose: 26.4 mg/kg/injection, schedule: Q01DX009 (ip), vehicle: saline): 125 % of control
T/C (dose: 29.0 mg/kg/injection, schedule: Q01DX009 (ip), vehicle: saline): 128 and 129 % of control
T/C (dose: 30.0 mg/kg/injection, schedule: Q01DX009 (ip), vehicle: saline, evaluated on day 5): 103 and 121 % of control
T/C (dose: 30.0 mg/kg/injection, schedule: Q01DX009 (ip), vehicle: saline, evaluated on day 45): 103, 126, 135 % of control
T/C (dose: 30.0 mg/kg/injection, schedule: Q01DX009 (ip), vehicle: saline, evaluated on day 60): 121 % of control
T/C (dose: 33.0 mg/kg/injection, schedule: Q01DX009 (ip), vehicle: saline, evaluated on day 5): 130 % of control
T/C (dose: 33.0 mg/kg/injection, schedule: Q01DX009 (ip), vehicle: saline, evaluated on day 60): 130 and 139 % of control
T/C (dose: 33.0 mg/kg/injection, schedule: Q03HX024 (ip), vehicle: saline): 138 % of control
T/C (dose: 37.5 mg/kg/injection, schedule: Q01DX009 (ip), vehicle: saline): 126 and 134 % of control
T/C (dose: 39.0 mg/kg/injection, schedule: Q03HX024 (ip), vehicle: saline): 145 % of control
T/C (dose: 39.6 mg/kg/injection, schedule: Q01DX009 (ip), vehicle: saline): 134 % of control
T/C (dose: 43.0 mg/kg/injection, schedule: Q01DX009 (ip), vehicle: saline): 134 and 140 % of control
T/C (dose: 44.0 mg/kg/injection, schedule: Q01DX009 (ip), vehicle: saline): 134 % of control
T/C (dose: 45.0 mg/kg/injection, schedule: Q01DX009 (ip), vehicle: saline, evaluated on day 5): 107 and 116 % of control
T/C (dose: 45.0 mg/kg/injection, schedule: Q01DX009 (ip), vehicle: saline, evaluated on day 45): 107 and 130 % of control (2×)
T/C (dose: 45.0 mg/kg/injection, schedule: Q01DX009 (ip), vehicle: saline, evaluated on day 60): 116 % of control
T/C (dose: 50.0 mg/kg/injection, schedule: Q01DX009 (ip), vehicle: saline, evaluated on day 5): 130 % of control
T/C (dose: 50.0 mg/kg/injection, schedule: Q01DX009 (ip), vehicle: saline, evaluated on day 30): 130 % of control
T/C (dose: 50.0 mg/kg/injection, schedule: Q01DX009 (ip), vehicle: saline, evaluated on day 45): 129 % of control (2×)
T/C (dose: 50.0 mg/kg/injection, schedule: Q01DX009 (ip), vehicle: saline, evaluated on day 60): 130 and 135 % of control
T/C (dose: 50.0 mg/kg/injection, schedule: Q03HX024 (ip), vehicle: saline): 132 % of control
T/C (dose: 58.0 mg/kg/injection, schedule: Q03HX024 (ip), vehicle: saline): 145 % of control
T/C (dose: 64.0 mg/kg/injection, schedule: Q01DX009 (ip), vehicle: saline): 132 and 134 % of control
T/C (dose: 67.0 mg/kg/injection, schedule: Q01DX009 (ip), vehicle: saline, evaluated on day 5): 109 and 122 % of control
T/C (dose: 67.0 mg/kg/injection, schedule: Q01DX009 (ip), vehicle: saline, evaluated on day 45): 109, 134, 135, 142 % of control
T/C (dose: 67.0 mg/kg/injection, schedule: Q01DX009 (ip), vehicle: saline, evaluated on day 60): 122 and 134 % of control
T/C (dose: 75.0 mg/kg/injection, schedule: Q01DX009 (ip), vehicle: saline, evaluated on day 5): 138 % of control
T/C (dose: 75.0 mg/kg/injection, schedule: Q01DX009 (ip), vehicle: saline, evaluated on day 45): 135 % of control (2×)
T/C (dose: 75.0 mg/kg/injection, schedule: Q01DX009 (ip), vehicle: saline, evaluated on day 60): 139 % of control
T/C (dose: 75.0 mg/kg/injection, schedule: Q03HX024 (ip), vehicle: saline): 137 % of control
T/C (dose: 96.0 mg/kg/injection, schedule: Q01DX009 (ip), vehicle: saline): 135 and 149 % of control
T/C (dose: 100.0 mg/kg/injection, schedule: Q01DX009 (ip), vehicle: saline, evaluated on day 30): 142 and 146 % of control
T/C (dose: 100.0 mg/kg/injection, schedule: Q01DX009 (ip), vehicle: saline, evaluated on day 45): 131, 135, 137 % of control (3×)
T/C (dose: 100.0 mg/kg/injection, schedule: Q01DX009 (ip), vehicle: saline, evaluated on day 60): 131 % of control
T/C (dose: 125.0 mg/kg/injection, schedule: Q01DX005 (ip), vehicle: other): 135 % of control
T/C (dose: 125.0 mg/kg/injection, schedule: Q01DX009 (ip), vehicle: saline): 130 and 137 % of control
T/C (dose: 132.0 mg/kg/injection, schedule: Q01DX009 (ip), vehicle: saline): 136 and 147 % of control
T/C (dose: 150.0 mg/kg/injection, schedule: Q01DX009 (ip), vehicle: saline, evaluated on day 45): 124, 129, 164 % of control
T/C (dose: 150.0 mg/kg/injection, schedule: Q01DX009 (ip), vehicle: saline, evaluated on day 60): 132 % of control
T/C (dose: 200.0 mg/kg/injection, schedule: Q01DX009 (ip), vehicle: saline): 145, 150, 151, 158 % of control
T/C (dose: 225.0 mg/kg/injection, schedule: Q01DX009 (ip), vehicle: saline, evaluated on day 45): 127 % of control

— PubChem BioAssay AID248 (DTP/NCI, 2004)
